# Source: US4518527 (dated 1985)
# Test: general procedure: solution-phase peptide synthesis; isobutyl chloroformate/N-methylmorpholin/HOSu; azide method (isoamylnitrite)
Substance,step yield (coupling step) [%],step yield (late stage modification step) [%]
Cbz-K(Cbz)SDEES-OH,72.0,–
H-KSDEES-OH,–,83.5
Cbz-D(OBn)EES-OH,81.1,–

# * marks the point of attachment. Cbz = O=C(OCc1ccccc1)*; OBn = c1ccc(CO*)cc1
